This is an account of results in PMC12589908.

Protein sequences, listed by entry. Tags and fused reporters are not part of them. Lines headed by an entry give the natural chain unless they say otherwise; changes in a name come on top.
UniProt P02795: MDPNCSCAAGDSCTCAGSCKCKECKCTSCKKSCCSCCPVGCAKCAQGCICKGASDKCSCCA
UniProt P14618: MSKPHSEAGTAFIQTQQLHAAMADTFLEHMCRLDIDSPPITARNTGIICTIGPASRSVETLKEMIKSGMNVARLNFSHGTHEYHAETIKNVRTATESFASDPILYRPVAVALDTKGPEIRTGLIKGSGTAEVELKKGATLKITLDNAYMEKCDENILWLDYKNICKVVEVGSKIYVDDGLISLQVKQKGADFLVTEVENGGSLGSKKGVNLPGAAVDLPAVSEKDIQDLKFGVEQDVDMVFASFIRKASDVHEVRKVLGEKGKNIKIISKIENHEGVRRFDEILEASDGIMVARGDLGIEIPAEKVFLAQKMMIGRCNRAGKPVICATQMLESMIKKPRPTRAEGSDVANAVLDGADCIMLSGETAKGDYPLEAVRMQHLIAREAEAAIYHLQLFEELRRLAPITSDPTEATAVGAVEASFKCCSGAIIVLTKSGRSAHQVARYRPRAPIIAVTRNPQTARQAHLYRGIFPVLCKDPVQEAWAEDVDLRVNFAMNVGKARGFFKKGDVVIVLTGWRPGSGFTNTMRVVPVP

Results are given in words; binding and its absence hold for the method and conditions named. In cells and extracts the contact can be indirect. These calls come from enrichment with a bait or labelling near it, and not all partners need be listed.

The assay concerns the target MT2A-Flag (metallothionein-2A) (UniProt P02795). Nature of the assay: affinity purification with mass spectrometry; MT2A-Flag precipitated with Flag-beads from T47D cells (1x10^8) stably expressing MT2A-Flag, hypoxia (1% O2 for 24 h) versus normoxia; LC-MS/MS.

Regarding “Pyruvate kinase M2 (PKM2) of T47D cells (from UniProt P14618 1-531) (enzyme)”, the binding result is reported as “binds”.
